Measured values: the supplement of paper PMC10849652
The list shows a part of the results.

Sequences of proteins named here, by UniProt entry; tags and fusion partners are left off. A change or cut given only in a name is not applied to a line headed by its entry.
UniProt Q12809: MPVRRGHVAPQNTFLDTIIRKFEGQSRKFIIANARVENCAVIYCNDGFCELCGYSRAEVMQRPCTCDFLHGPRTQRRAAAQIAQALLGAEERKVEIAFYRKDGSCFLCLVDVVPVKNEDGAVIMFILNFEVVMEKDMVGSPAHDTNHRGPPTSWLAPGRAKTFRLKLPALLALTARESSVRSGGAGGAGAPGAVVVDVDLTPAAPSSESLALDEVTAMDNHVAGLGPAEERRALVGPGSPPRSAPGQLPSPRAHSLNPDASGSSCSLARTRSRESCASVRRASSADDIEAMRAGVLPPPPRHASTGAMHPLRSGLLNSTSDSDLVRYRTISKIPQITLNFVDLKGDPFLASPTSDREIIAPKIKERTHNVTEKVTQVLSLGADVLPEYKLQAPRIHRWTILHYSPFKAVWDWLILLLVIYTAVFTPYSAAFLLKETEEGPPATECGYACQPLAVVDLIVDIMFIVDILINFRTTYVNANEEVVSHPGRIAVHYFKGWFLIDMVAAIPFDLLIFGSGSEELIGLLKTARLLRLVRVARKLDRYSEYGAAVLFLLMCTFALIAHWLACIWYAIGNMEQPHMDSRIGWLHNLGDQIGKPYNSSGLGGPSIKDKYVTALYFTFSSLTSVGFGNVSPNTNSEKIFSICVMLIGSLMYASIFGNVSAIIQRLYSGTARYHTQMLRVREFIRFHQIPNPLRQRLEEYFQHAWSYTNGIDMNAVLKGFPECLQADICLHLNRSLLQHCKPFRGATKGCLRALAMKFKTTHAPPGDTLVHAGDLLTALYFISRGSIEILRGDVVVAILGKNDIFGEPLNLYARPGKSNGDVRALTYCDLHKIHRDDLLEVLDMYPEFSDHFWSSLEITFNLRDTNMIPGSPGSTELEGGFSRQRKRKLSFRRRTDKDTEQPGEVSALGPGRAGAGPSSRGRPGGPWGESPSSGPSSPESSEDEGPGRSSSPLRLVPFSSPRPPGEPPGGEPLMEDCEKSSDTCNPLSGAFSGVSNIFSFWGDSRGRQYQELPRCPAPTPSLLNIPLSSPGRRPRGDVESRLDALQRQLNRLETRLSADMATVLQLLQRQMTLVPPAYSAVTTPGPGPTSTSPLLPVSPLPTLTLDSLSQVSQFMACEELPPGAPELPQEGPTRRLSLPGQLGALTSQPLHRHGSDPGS
UniProt Q96MP8: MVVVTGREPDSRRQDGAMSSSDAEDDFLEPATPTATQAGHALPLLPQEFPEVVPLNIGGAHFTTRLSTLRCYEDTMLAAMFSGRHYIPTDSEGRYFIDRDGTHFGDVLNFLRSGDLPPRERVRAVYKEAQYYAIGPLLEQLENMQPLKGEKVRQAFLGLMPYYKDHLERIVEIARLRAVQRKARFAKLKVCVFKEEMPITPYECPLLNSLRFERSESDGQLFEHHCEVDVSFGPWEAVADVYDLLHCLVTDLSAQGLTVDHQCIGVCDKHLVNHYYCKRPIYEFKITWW
UniProt Q9H9L4: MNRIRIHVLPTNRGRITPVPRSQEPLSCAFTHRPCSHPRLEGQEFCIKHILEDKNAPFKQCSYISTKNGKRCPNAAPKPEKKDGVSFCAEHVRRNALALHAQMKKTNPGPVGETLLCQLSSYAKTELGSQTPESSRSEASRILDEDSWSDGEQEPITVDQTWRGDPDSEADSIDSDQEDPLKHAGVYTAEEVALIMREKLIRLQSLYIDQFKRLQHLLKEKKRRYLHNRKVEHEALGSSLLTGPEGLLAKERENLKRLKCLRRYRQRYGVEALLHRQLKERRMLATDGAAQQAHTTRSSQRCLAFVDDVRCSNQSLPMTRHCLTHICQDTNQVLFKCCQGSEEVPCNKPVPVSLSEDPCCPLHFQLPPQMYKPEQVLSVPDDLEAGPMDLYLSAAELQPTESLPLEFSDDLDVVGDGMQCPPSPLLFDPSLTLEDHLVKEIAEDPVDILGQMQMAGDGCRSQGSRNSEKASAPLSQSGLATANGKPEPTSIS
UniProt Q9UKP3: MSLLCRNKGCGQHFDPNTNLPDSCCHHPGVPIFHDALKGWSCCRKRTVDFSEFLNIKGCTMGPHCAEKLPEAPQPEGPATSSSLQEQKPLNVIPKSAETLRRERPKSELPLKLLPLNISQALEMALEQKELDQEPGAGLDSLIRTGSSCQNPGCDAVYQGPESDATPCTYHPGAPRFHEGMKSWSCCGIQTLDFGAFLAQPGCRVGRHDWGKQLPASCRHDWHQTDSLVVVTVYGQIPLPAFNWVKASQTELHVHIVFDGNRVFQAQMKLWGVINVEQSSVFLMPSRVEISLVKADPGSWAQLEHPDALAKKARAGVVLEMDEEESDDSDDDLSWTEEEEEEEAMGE
UniProt Q9ULD6: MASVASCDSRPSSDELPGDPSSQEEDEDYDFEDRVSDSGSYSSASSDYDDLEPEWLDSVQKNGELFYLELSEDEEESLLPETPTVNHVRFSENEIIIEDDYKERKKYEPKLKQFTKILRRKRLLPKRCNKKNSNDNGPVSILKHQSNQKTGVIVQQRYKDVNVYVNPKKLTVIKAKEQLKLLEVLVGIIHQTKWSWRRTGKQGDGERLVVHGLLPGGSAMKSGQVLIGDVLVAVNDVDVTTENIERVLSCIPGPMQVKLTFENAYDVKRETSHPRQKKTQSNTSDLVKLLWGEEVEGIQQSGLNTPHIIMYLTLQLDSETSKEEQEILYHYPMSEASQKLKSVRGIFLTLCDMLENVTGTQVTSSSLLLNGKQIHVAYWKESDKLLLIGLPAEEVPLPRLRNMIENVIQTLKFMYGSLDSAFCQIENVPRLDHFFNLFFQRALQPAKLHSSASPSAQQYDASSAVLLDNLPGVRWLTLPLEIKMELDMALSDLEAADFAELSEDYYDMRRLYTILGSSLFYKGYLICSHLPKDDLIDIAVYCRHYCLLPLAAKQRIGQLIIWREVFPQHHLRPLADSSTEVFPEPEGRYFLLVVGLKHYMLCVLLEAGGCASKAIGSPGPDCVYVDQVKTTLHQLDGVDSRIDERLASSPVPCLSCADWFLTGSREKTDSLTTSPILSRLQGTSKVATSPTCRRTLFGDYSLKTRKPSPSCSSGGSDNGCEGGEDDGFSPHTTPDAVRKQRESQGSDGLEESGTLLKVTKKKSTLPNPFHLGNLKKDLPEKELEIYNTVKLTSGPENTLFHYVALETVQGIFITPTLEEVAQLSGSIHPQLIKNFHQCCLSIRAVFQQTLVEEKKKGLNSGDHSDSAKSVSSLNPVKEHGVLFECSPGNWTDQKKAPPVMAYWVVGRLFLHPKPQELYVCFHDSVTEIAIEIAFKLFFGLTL
UniProt Q14573, whole entry, looked up: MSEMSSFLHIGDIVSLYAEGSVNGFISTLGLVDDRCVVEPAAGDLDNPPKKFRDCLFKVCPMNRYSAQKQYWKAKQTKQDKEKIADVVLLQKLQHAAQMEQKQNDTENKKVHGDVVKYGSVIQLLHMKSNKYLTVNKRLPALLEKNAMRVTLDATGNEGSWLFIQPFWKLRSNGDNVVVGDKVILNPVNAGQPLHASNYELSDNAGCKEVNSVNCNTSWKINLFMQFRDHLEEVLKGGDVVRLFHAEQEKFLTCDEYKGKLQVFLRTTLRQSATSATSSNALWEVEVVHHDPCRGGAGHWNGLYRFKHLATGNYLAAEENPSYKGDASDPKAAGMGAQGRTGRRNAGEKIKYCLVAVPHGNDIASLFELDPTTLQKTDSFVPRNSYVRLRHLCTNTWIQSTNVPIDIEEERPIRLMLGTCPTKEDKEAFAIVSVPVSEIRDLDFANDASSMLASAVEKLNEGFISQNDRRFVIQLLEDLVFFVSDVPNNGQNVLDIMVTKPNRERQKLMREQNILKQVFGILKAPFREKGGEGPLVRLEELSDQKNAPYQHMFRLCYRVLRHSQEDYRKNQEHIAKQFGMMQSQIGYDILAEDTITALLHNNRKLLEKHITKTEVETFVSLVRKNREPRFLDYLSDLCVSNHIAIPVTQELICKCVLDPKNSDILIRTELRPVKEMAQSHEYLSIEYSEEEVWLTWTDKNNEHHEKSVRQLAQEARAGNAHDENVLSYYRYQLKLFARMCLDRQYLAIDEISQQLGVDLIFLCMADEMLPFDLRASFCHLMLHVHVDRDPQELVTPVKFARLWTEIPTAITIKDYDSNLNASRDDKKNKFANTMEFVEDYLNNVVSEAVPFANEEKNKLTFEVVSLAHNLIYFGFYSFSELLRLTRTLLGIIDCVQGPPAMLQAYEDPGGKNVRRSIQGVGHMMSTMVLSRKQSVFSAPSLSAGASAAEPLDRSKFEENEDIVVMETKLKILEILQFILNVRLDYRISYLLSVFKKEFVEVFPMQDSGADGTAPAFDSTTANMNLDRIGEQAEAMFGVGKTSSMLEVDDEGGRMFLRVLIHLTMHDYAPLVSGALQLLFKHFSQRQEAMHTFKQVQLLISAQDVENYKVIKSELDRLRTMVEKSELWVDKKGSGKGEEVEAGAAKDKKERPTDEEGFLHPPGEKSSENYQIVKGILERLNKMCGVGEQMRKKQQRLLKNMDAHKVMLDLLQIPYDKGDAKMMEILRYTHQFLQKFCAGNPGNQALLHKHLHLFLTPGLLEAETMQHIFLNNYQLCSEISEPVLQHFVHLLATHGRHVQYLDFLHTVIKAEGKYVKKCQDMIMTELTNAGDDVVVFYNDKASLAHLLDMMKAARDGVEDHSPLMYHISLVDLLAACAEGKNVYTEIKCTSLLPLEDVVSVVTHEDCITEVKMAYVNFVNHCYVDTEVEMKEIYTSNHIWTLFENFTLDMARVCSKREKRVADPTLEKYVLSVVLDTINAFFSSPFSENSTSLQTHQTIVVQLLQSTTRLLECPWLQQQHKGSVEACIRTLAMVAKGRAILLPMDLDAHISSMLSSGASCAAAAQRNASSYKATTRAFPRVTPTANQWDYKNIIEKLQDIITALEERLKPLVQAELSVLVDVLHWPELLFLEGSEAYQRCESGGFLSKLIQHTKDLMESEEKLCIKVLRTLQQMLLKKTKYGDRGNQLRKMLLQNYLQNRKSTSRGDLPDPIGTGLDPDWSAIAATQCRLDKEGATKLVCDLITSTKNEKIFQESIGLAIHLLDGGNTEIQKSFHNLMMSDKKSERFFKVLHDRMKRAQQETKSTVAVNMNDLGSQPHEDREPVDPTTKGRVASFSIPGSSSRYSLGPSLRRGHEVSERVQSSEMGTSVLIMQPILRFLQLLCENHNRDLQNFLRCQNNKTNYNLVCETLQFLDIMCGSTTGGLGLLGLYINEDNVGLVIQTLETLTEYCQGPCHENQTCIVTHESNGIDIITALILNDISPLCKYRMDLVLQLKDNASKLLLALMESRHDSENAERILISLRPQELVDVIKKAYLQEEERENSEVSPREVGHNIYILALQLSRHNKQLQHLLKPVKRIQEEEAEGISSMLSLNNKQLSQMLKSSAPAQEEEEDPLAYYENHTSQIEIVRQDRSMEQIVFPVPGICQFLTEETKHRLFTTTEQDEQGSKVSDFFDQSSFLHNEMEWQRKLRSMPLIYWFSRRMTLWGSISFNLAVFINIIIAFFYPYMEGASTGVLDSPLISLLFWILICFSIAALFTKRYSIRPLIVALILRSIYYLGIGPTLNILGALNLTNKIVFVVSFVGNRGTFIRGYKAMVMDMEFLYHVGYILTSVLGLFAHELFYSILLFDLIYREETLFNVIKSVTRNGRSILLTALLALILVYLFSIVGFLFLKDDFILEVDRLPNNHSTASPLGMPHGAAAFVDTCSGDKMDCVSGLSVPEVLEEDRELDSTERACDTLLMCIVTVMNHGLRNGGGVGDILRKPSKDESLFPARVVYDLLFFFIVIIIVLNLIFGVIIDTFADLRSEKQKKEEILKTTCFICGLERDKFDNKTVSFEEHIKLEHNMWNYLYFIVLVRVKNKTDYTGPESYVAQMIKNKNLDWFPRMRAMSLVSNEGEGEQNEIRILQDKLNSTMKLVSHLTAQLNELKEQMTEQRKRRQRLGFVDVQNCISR
UniProt Q86V97: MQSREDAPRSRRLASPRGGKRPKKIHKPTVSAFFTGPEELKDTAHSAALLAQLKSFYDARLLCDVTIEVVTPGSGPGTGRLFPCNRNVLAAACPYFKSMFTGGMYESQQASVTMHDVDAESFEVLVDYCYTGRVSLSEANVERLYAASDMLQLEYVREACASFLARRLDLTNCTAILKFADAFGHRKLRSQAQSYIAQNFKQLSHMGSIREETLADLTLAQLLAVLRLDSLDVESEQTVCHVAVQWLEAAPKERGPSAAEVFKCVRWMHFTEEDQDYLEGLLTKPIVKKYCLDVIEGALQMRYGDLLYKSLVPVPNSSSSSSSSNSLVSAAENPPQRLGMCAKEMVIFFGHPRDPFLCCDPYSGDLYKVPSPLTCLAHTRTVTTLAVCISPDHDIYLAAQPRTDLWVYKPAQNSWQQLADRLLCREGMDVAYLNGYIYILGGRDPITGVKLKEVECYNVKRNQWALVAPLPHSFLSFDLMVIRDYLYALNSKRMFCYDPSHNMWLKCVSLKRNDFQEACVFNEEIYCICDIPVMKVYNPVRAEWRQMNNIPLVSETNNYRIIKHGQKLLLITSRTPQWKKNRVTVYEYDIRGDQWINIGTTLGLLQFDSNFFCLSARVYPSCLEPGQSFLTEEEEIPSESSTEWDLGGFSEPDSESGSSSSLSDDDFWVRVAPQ

Experiments:
Experiment in all cases: log2 fold change, soluble protein after heating vs DMSO (PISA); higher = thermal stabilisation; K562 lysate, 10 uM; active = over 0.2 and 3.5 SD of the protein, either way, in both replicates (recomputed)
[1] = compound: CC(=O)c1cnc2ccc(-c3cc(Cl)c(O)c(Cl)c3)nc2c1N[C@H]1CC[C@H](CN(C)C)CC1
Outline: (§1)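 A 30 min treatment with 10 μM compound was applied to crude K562 extract at 1 mg/mL protein in PBS pH 7.4 with 1 mM MgCl2. Heating for 3 min spanned 48°C-58°C, after which aliquots were pooled, adjusted to 0.5% NP-40 at 4°C and spun at 21,000xg for 90 min. TMTpro 16plex LC-MS/MS of the supernatant, with channel sums equalised, gave values recorded as log-two fold change in thermal stability against solvent controls, from duplicates.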

ralimetinib = compound: CC(C)(C)Cn1c(N)nc2ccc(-c3[nH]c(C(C)(C)C)nc3-c3ccc(F)cc3)nc21 [ralimetinib]
Outline: as §1

[2] = compound: CC(C)(O)CC(=O)NCCn1ccc2ncnc(Nc3ccc(Oc4cccc(C(F)(F)F)c4)c(Cl)c3)c21
Outline: as §1

[3] = compound: CC(C)C1=C2N=C(C=C(N2N=C1)NCC3=CC=CC=C3)NCCCCCCN
Outline: as §1

[4] = compound: CC1=C(C2=C(C=C1)C(=O)C3=CC=CC=C3N2CCCN)C
Outline: as §1

[5] = compound: CC1=C(C=C(C=C1)NC(=O)C2=CC(=CC=C2)N(C)C)NC(=O)C3=CC=C(C=C3)O
Outline: as §1

[6] = compound: CC1=CC=C(C=C1)SC2=C3C=C(SC3=CN=C2)C(=O)N
Outline: as §1

[7] = compound: CC1=C(C(CC(=O)N1)C2=CC=C(C=C2)C(F)(F)F)C(=O)NC3=C(C=C4C(=C3)C=NN4)F
Outline: as §1

[8] = compound: CC1=C(C=C(C=C1)NC(=O)C2=CC(=CC=C2)C(C)(C)C#N)NC3=CC4=C(C=C3)N=CN(C4=O)C
Outline: as §1

ibrutinib = compound: C=CC(=O)N1CCC[C@@H](n2nc(-c3ccc(Oc4ccccc4)cc3)c3c(N)ncnc32)C1 [ibrutinib]
Outline: as §1

Measured: log2 fold change

INTS6L (UniProt Q5JSJ4)
inactive: [1] -0.053 | ralimetinib 0.003 | [2] 0.085 | [3] 0.082 | [4] -0.019 | [5] 0.007 | [6] 0.02

ISG20L2 (UniProt Q9H9L3)
inactive: [1] 0.016 | ralimetinib -0.079 | [2] -0.038 | [3] 0.048 | [7] 0.064 | [4] 0.006 | [5] 0.097 | [6] 0.067

ITPR2 (UniProt Q14571)
inactive: [1] -0.04 | ralimetinib 0.069 | [2] -0.233 | [3] 0.063 | [7] -0.137 | [4] -0.072 | [5] -0.031 | [6] -0.322

JADE2 (UniProt Q9NQC1)
inactive: [4] -0.036

JCHAIN (UniProt P01591)
inactive: [3] 1.97 | [8] -0.131

KANK2 isoform 2 (UniProt Q63ZY3)
inactive: [1] -0.054 | ralimetinib 0.202 | [2] -0.183 | [4] -0.042 | [5] -0.053 | [6] -0.079

IPO5 (UniProt H0Y3V4)
inactive: [1] 0.106 | ralimetinib 0.117 | [2] -0.184 | [3] -0.007 | [7] -0.048 | [4] -0.04 | [5] 0.154 | [6] 0.073

KALRN (UniProt O60229)
inactive: [8] 0.051

KCNH2 (UniProt Q12809)
inactive: [3] -0.066 | [8] 0.062

JRK isoform 2 (UniProt O75564)
inactive: [7] 0.083

KDELR3 (UniProt O43731)
inactive: [1] 0.125 | ralimetinib -0.196 | [2] 0.089 | [3] -0.206 | [7] 0.048 | [4] 0.046 | [8] -0.019 | [5] -0.008 | [6] 0.201

JOSD1 (UniProt Q15040)
inactive: [3] -0.198

KAT2A (UniProt Q92830)
inactive: [1] 0.037 | ralimetinib 0.135 | [2] 0.11 | [7] 0 | [4] -0.055 | [8] -0.051 | [5] -0.131 | [6] 0.152

KCTD7 (UniProt Q96MP8)
inactive: [1] 0.076 | ralimetinib -0.057 | [2] 0.111 | [3] 0.123 | [4] 0.111 | [8] -0.195 | [5] 0.012 | [6] -0.123

KCTD16 (UniProt Q68DU8)
inactive: [8] 0.073

ITGB3BP isoform 5 (UniProt Q13352)
inactive: ralimetinib 0.091 | [2] 0.027 | [8] -0.045 | [5] -0.027

ITGA2B (UniProt P08514)
inactive: [1] 0.039 | ralimetinib 0.013 | [2] -0.08 | [3] -0.072 | [7] -0.086 | [8] 0.102 | [5] 0.057 | [6] -0.02

JAK2 (UniProt O60674)
inactive: ralimetinib 0.095 | [2] -0.062 | [3] 0.145 | [7] 0.041 | [4] 0.124 | [5] 0.088

ITIH3 (UniProt Q06033)
inactive: ibrutinib 0.067 | ralimetinib 0.236 | [2] -0.051 | [3] -0.018 | [5] 0.068

IST1 isoform 2 (UniProt P53990)
inactive: [1] -0.071 | ralimetinib -0.044 | [2] 0.038 | [3] 0.02 | [7] 0.103 | [4] 0.037 | [8] 0.037 | [5] -0.069 | [6] 0.094

KANSL2 (UniProt Q9H9L4)
inactive: ralimetinib -0.111 | [2] 0.183 | [3] -0.089 | [8] 0.097 | [5] 0.111

IPP (UniProt Q9Y573)
inactive: [1] 0.042 | ralimetinib 0.14 | [2] -0.056 | [3] -0.073 | [4] -0.006 | [5] 0.088 | [6] -0.044

KATNBL1 (UniProt Q9H079)
inactive: [1] -0.002 | [3] 0.156 | [7] -0.029 | [4] -0.002 | [8] 0.082 | [6] -0.025

ITGB1BP2 (UniProt Q9UKP3)
inactive: [4] 0.139

ITPRIP (UniProt Q8IWB1)
inactive: [3] 0.023 | [4] 0.041

INTU (UniProt Q9ULD6)
inactive: ralimetinib 0.053 | [2] 0.091 | [5] -0.231

JUN (UniProt P05412)
inactive: [1] 0.079 | ralimetinib -0.067 | [2] -0.007 | [3] 0.098 | [4] 0.074 | [8] 0.12 | [5] -0.129 | [6] -0.037

JARID2 (UniProt Q92833)
inactive: [7] -0.011

JUNB (UniProt P17275)
inactive: [4] -0.241 | [8] 0.178

KDM2B (UniProt Q8NHM5)
inactive: ralimetinib 0.058 | [2] -0.052 | [3] -0.075 | [8] 0.054 | [5] -0.043

ITFG2 (UniProt H0YGR0)
inactive: [1] 0.016 | ralimetinib -0.043 | [2] -0.04 | [4] -0.065 | [5] 0 | [6] -0.126

ITPR3 (UniProt Q14573)
inactive: [1] -0.084 | [3] 0.065 | [8] -0.016 | [6] -0.06

JAK1 (UniProt P23458)
inactive: ibrutinib 0.004 | [8] -0.003

3 successive records out of the list so far, quoted:
ITFG2 (UniProt H0YGR0)
inactive: [1] 0.016 | ralimetinib -0.043 | [2] -0.04 | [4] -0.065 | [5] 0 | [6] -0.126

ITPR3 (UniProt Q14573)
inactive: [1] -0.084 | [3] 0.065 | [8] -0.016 | [6] -0.06

JAK1 (UniProt P23458)
inactive: ibrutinib 0.004 | [8] -0.003

The listing continues.

KCNN4 (UniProt O15554)
inactive: [1] -0.256 | ralimetinib 0.154 | [2] 0.031 | [3] -0.036 | [7] -0.107 | [8] -0.193 | [5] -0.076 | [6] -0.064

ISG20 (UniProt Q96AZ6)
inactive: ibrutinib 0.031 | [3] -0.025 | [4] -0.049

KBTBD6 (UniProt Q86V97)
inactive: [7] 0.148 | [8] -0.068

KANSL1 (UniProt Q7Z3B3)
inactive: [1] -0.024 | ralimetinib -0.031 | [2] 0.096 | [3] -0.033 | [7] 0.074 | [4] -0.027 | [5] 0.019 | [6] 0.038

IQCB1 (UniProt Q15051)
inactive: ibrutinib 0.11 | [3] 0.027 | [7] 0.033 | [4] -0.197
